Data: patent publication US20100048677A1
No constants are given. Whether binding was seen depends on the method and setting. Binding seen in cells or lysates may run through a third protein. Some binding calls cover weakened binding; strength is not graded here.

The chains behind the UniProt entries cited, without tags or fusion partners. Where a name states a change or a piece, a line headed by the entry shows the natural chain unless it says otherwise. A line that says so, or that is headed by a name, gives the form on record, which may keep a tag or linker. Residues count along the entry.
pro-αIIb (P08514, residues 32-1039): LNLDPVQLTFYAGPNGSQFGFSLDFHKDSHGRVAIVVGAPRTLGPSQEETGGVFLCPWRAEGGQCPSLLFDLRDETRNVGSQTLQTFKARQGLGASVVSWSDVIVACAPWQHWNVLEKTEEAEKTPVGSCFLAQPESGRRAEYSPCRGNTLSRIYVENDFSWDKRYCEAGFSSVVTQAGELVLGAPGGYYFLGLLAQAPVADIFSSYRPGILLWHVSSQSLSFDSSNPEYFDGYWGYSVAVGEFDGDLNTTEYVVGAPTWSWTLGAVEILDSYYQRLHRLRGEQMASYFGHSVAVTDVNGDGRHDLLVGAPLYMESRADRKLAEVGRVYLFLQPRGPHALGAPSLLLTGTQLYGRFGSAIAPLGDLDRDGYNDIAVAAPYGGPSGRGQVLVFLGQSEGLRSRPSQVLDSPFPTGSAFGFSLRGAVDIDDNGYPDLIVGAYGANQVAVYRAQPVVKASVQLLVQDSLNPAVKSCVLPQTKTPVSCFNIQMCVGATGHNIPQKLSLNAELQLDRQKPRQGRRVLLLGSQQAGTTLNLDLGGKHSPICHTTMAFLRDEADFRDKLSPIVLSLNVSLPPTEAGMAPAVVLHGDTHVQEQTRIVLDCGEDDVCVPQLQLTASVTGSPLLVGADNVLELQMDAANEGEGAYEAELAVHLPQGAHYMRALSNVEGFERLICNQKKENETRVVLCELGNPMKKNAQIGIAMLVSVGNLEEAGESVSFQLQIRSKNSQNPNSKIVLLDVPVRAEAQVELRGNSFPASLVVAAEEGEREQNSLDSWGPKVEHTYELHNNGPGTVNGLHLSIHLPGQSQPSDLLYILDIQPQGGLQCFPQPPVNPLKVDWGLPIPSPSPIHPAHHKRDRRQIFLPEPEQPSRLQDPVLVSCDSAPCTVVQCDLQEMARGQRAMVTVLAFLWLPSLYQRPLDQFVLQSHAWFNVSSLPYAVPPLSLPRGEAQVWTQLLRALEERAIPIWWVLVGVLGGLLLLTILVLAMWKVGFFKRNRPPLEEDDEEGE
pro-αIIb R858G/R859G (P08514, form named): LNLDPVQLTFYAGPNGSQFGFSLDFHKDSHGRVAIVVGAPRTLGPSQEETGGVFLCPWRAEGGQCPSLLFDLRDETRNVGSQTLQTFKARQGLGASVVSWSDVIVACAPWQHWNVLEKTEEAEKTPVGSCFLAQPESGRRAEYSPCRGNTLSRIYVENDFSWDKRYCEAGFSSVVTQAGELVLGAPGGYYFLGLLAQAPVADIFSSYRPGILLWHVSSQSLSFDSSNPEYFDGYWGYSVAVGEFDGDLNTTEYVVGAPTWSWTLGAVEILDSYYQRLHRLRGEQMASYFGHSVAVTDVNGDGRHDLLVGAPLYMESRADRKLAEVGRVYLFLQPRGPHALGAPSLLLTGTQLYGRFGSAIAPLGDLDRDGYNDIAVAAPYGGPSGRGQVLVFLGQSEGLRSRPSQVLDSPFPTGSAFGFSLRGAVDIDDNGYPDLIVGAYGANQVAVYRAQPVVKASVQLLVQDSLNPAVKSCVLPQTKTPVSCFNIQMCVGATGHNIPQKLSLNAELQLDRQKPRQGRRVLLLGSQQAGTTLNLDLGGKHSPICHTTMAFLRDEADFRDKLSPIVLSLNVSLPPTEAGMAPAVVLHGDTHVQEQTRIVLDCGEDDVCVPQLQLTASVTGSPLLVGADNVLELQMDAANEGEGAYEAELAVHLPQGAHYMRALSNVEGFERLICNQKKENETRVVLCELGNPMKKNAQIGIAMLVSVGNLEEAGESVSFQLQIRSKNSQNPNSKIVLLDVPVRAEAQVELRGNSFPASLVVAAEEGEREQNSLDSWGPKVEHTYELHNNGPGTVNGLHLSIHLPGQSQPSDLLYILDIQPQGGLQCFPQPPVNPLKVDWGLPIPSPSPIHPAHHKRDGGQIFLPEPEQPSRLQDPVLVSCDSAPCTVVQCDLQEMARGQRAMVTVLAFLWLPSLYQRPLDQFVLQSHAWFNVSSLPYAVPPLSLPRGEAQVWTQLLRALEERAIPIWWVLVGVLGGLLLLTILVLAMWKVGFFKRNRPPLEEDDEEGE
UniProt P05106: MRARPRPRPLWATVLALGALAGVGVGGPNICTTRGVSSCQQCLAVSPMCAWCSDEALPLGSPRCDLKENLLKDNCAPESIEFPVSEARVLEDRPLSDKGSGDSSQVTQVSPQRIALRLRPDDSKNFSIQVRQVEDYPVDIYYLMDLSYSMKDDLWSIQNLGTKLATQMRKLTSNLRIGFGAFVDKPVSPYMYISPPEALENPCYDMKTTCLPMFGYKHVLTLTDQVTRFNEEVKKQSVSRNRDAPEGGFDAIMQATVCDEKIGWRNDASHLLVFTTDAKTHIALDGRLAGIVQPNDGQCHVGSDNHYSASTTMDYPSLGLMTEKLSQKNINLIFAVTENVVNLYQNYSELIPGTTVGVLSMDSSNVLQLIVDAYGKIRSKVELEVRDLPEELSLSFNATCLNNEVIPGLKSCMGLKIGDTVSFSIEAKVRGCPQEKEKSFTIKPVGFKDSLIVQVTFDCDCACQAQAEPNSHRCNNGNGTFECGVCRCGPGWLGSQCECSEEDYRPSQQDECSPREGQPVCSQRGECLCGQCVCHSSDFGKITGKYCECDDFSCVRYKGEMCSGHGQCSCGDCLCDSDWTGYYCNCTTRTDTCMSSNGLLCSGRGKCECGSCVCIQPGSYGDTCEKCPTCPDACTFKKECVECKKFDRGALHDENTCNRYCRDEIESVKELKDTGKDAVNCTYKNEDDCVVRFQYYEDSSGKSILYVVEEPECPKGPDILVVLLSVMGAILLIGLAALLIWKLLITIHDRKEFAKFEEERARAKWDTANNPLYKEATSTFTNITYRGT

Legend:
αIIbβ3 (human) [1] = target: T1, αIIbβ3 (human) (UniProt P08514+P05106); experiment: co-immunoprecipitation
pro-αIIb (human) [2] = target: pro-αIIb (human) (UniProt P08514); experiment: co-immunoprecipitation with mAb BIB5
[3] = target: pro-αIIb R858G/R859G (human) (UniProt P08514); experiment: co-immunoprecipitation, HEK293 cells
αIIbβ3 (human) [4] = target: T1, αIIbβ3 (human); experiment: co-immunoprecipitation, megakaryocytes
αIIbβ3 (human) [5] = target: T1, αIIbβ3 (human); experiment: co-immunoprecipitation, immunoblot with anti-DNAJC10
[6] = target: pro-αIIbβ3 complex (human) (UniProt P08514+P05106); experiment: co-immunoprecipitation with conformation-specific mAbs
pro-αIIb (human) [7] = target: pro-αIIb (human) (UniProt P08514); experiment: co-immunoprecipitation with mAb B1B5, immunoblot for DNAJC10

Measured: binding

B1: DNAJC10 (DNAJ (HSP40) HOMOLOG, SUBFAMILY C, MEMBER 10) (protein)
chain: DQDFYSLLGVSKTASSREIRQAFKKLALKLHPDKNPNNPNAHGDFLKINRAYEVLKDEDLRKKYDKYGEKGLEDNQGGQYESWNYYRYDFGIYDDDPEIITLERREFDAAVNSGELWFVNFYSPGCSHCHDLAPTWRDFAKEVDGLLRIGAVNCGDDRMLCRMKGVNSYPSLFIFRSGMAPVKYHGDRSKESLVSFAMQHVRSTVTELWTGNFVNSIQTAFAAGIGWLITFCSKGGDCLTSQTRLRLSGMLDGLVNVGWMDCATQDNLCKSLDITTSTTAYFPPGATLNNKEKNSILFLNSLDAKEIYLEVIHNLPDFELLSANTLEDRLAHHRWLLFFHFGKNENSNDPELKKLKTLLKNDHIQVGRFDCSSAPDICSNLYVFQPSLAVFKGQGTKEYEIHHGKKILYDILAFAKESVNSHVTTLGPQNFPANDKEPWLVDFFAPWCPPCRALLPELRRASNLLYGQLKFGTLDCTVHEGLCNMYNIQAYPTTVVFNQSNIHEYEGHHSAEQILEFIEDLMNPSVVSLTPTTFNELVTQRKHNEVWMVDFYSPWCHPCQVLMPEWKRMARTLTGLINVGSIDCQQYHSFCAQENVQRYPEIRFFPPKSNKAYHYHSYNGWNRDAYSLRIWGLGFLPQVSTDLTPQTFSEKVLQGKNHWVIDFYAPWCGPCQNFAPEFELLARMIKGKVKAGKVDCQAYAQTCQKAGIRAYPTVKFYFYERAKRNFQEEQINTRDAKAIAALISEKLETLRNQGKRNKDEL
binds: all assays above
